PubChem BioAssay AID1053208 – Peter MacCallum Cancer Centre | 2014
Here is an unselected part of about 17,000 reagents tested. 788 of them (4.7%) were called active. 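Calls rest on z-score classes alone; an extra cut-off of viability at most 70% of control was not applied to them.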 A number with no mark means an inactive call. Further read-outs or replicates are left out here.

- Test: 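Synthetic lethal interactions between gene loss and doxorubicin in osteosarcoma cells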 (primary screen)
- Cell system: mouse osteosarcoma cells, early-passage culture from an engineered mouse model of fibroblastic bone tumour
- Reagents: siRNA pool against mouse genes, 40 nM
- Time to read-out: about 120 h (48 h before drug, then 72 h with drug)
- Treatment: doxorubicin 100 nM for 72 h, roughly 30-40% inhibitory dose
- Detection: 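Luminescent ATP signal taken as viability with or without 100 nM doxorubicin for 72 h; mean of two wells set against non-targeting siRNA and turned into robust z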
- Reading the numbers: viability z-score with doxorubicin: higher = more viable cells under doxorubicin; viability z-score without drug: higher = more viable cells with knock-down alone
- Rule for the call: 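a pool counts as active when its viability z-score with doxorubicin is -2 or below and its z-score without drug lies between -2 and 2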

target | combined z-score class | viability z-score with doxorubicin | viability z-score without drug
Hk2 | no change with or without drug | 0.67 | 0.84
Tsfm | high cell count without drug only | 0 | 2.19
Zgpat | no change with or without drug | 0 | 0.17
Ghrh | no change with or without drug | -0.45 | -0.67
Itgb2 | no change with or without drug | 0.79 | 0.51
Ptprm | no change with or without drug | -0.79 | -1.85
Rtn2 | no change with or without drug | 1.8 | 1.85
Parvg | no change with or without drug | -0.9 | -1.18
Rflna | no change with or without drug | 0.45 | 0.51
Rps14 | low cell count with and without drug | -6.52 | -4.22
Spag16 | no change with or without drug | -0.67 | 0.51
Gtf2a1 | no change with or without drug | -0.56 | 0.51
B4galnt1 | no change with or without drug | 0.11 | -0.67
Krt35 | no change with or without drug | -0.9 | 1.01
Cep120 | no change with or without drug | 0 | -0.84
Fchsd1 | no change with or without drug | 0 | -0.67
Col18a1 | no change with or without drug | 1.12 | 0.84
Dcaf4 | no change with or without drug | -1.35 | -0.51
Rpl10 | low cell count with and without drug | -6.3 | -4.22
Elp2 | no change with or without drug | -0.22 | -0.51
Has1 | no change with or without drug | 0.22 | 0.34
Tjp1 | no change with or without drug | -0.22 | -0.17
Gdap1 | no change with or without drug | 0.9 | -0.67
Or10q1b | no change with or without drug | 0.34 | -0.51
Zswim9 | no change with or without drug | -0.45 | 0.17
Elfn1 | no change with or without drug | -1.12 | -1.18
Smcr8 | no change with or without drug | -1.69 | 0.51
Atp5mc3 | no change with or without drug | 0.67 | 0.17
Dcun1d3 | no change with or without drug | -1.46 | -1.18
Rptor | no change with or without drug | -0.67 | -0.84
Prkacb | no change with or without drug | 0.79 | 0.34
Or2t46 | low cell count with doxorubicin only (active) | -2.02 | -1.85
Trim36 | high cell count without drug only | 1.57 | 2.19
Arl8b | no change with or without drug | -0.56 | -0.84
Dcaf17 | no change with or without drug | 1.12 | -0.17
Drp2 | no change with or without drug | -0.22 | 0.17
Defb13 | no change with or without drug | 0.22 | 0.67
Mageb3 | no change with or without drug | 0 | -1.52
Alkbh2 | no change with or without drug | -0.67 | 0.34
Gtf2b | no change with or without drug | -0.67 | 0
Dmrt1 | no change with or without drug | 0.79 | -0.51
Ecm1 | no change with or without drug | -0.45 | 0
Pak3 | no change with or without drug | 0.67 | 0.51
Trp53 | no change with or without drug | -0.34 | 0.17
Dbx2 | low cell count with doxorubicin only (active) | -3.15 | -0.67
Dars1 | no change with or without drug | -1.12 | -1.85
Olah | high cell count with doxorubicin only | 2.02 | -0.17
Hoatz | no change with or without drug | 0 | -0.84
Mtus2 | no change with or without drug | 1.57 | 0.84
Wbp11 | high cell count with doxorubicin only | 2.47 | 1.69

Called active, of those listed so far:
target | combined z-score class | viability z-score with doxorubicin | viability z-score without drug
Or2t46 | low cell count with doxorubicin only (active) | -2.02 | -1.85
Dbx2 | low cell count with doxorubicin only (active) | -3.15 | -0.67
